Experimental data taken from publication PMC11987316.
These are yes or no findings as the source states them, for the method shown. Binding seen in cells or lysates may run through a third protein. Some entries that bind do so weakly or less than the wild type.

The chains behind the UniProt entries cited, without tags or fusion partners. Residues count along the entry.
UniProt O14543: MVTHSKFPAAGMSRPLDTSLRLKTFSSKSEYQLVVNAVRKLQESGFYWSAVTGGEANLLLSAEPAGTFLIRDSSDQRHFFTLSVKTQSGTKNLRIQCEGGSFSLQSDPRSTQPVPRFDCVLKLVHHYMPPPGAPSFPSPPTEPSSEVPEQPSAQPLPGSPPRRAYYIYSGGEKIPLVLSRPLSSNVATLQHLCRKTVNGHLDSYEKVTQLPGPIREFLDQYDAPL
UniProt P80188, residues 21-198: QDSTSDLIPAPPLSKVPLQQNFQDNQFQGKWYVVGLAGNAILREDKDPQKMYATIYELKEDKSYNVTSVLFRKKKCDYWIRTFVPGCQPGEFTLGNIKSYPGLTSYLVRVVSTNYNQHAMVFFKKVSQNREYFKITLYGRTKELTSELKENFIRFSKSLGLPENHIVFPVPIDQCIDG

Biological target: Suppressor of cytokine signalling 3 (SOCS3) (human (endogenous in the paper's human cell lines)) (UniProt O14543)
Test: co-IP; total cell lysates in IP lysis buffer, primary antibodies overnight at 4 °C, protein A/G agarose 2 h at room temperature, western blotting; cell line and precipitating antibody not stated

binding: binds
Substance: Lipocalin-2 (LCN2) (from UniProt P80188 21-198)
